# Test results: article PMC10379010, “Short Peptides of Innate Immunity Protein Tag7 (PGLYRP1) Selectively Induce Inhibition or Activation of Tumor Cell Death via TNF Receptor” (International Journal of Molecular Sciences, 2023)
# Sequences of proteins named here, by UniProt entry; tags and fusion partners are left off. Residues count along the entry.
# UniProt P19438, residues 30-211: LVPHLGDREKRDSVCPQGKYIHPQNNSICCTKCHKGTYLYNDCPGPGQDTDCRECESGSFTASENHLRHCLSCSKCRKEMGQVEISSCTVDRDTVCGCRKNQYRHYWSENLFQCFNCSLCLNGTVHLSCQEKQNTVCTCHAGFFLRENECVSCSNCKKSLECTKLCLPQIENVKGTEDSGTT
# These are yes or no findings as the source states them, for the method shown. For part of these data: Binding seen in cells or lysates may run through a third protein. Some entries that bind do so weakly or less than the wild type.
# T1: TNFR1 receptor exposed on the cell surface of L929 cells (mouse (endogenous in L929)) (UniProt P25118)
# T1 sequence: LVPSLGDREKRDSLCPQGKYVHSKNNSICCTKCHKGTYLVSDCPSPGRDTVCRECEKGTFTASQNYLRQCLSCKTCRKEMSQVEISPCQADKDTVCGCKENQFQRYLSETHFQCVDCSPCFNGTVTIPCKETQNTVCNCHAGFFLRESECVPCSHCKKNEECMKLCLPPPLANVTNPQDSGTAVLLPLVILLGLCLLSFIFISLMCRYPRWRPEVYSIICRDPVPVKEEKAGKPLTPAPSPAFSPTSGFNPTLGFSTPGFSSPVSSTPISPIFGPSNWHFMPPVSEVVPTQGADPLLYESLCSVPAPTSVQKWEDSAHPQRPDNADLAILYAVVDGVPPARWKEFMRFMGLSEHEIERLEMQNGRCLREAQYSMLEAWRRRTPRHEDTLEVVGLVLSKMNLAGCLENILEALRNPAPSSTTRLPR
# Tests used:
# [1] = target: T1, TNFR1 receptor exposed on the cell surface of L929 cells (mouse (endogenous in L929)); assay: cross-linking; biotinylated peptides (1 nM) incubated 1 h with L929 cells, cross-linked with BS3; RIPA lysate; Streptavidin magnetic beads; Western blot with antibodies to TNFR1; only the binder purified
# [2] = target: soluble TNFR1 receptor domain (sTNFR1) (UniProt P19438); assay: affinity chromatography; sTNFR1 immobilised on CNBr-activated Sepharose 4B; biotinylated peptides loaded; washed with PBS containing 0.5 M NaCl and PBS; eluted with 0.25 M triethylamine pH 12; Tricine-SDS-PAGE, blot, HRP-Streptavidin; both purified
binding [1],binding [2],Binder
binds,binds,HRDVQRT (biotin (site not stated)) [biotinylated peptide 17.1A]
binds weakly,,RSNYVLKG (biotin (site not stated)) [biotinylated peptide 17.1B]
